Results published in article PMC6726423.
Results are given in words; binding and its absence hold for the method and conditions named. In cells and extracts the contact can be indirect. Some results given as binding are weak or reduced against the parent protein; the word gives no strength.

Chains of the proteins cited; added tags and fusions are not shown. Lines headed by an entry give the natural chain unless they say otherwise; changes in a name come on top. Residues count along the entry.
UniProt P35968, residues 20-1356: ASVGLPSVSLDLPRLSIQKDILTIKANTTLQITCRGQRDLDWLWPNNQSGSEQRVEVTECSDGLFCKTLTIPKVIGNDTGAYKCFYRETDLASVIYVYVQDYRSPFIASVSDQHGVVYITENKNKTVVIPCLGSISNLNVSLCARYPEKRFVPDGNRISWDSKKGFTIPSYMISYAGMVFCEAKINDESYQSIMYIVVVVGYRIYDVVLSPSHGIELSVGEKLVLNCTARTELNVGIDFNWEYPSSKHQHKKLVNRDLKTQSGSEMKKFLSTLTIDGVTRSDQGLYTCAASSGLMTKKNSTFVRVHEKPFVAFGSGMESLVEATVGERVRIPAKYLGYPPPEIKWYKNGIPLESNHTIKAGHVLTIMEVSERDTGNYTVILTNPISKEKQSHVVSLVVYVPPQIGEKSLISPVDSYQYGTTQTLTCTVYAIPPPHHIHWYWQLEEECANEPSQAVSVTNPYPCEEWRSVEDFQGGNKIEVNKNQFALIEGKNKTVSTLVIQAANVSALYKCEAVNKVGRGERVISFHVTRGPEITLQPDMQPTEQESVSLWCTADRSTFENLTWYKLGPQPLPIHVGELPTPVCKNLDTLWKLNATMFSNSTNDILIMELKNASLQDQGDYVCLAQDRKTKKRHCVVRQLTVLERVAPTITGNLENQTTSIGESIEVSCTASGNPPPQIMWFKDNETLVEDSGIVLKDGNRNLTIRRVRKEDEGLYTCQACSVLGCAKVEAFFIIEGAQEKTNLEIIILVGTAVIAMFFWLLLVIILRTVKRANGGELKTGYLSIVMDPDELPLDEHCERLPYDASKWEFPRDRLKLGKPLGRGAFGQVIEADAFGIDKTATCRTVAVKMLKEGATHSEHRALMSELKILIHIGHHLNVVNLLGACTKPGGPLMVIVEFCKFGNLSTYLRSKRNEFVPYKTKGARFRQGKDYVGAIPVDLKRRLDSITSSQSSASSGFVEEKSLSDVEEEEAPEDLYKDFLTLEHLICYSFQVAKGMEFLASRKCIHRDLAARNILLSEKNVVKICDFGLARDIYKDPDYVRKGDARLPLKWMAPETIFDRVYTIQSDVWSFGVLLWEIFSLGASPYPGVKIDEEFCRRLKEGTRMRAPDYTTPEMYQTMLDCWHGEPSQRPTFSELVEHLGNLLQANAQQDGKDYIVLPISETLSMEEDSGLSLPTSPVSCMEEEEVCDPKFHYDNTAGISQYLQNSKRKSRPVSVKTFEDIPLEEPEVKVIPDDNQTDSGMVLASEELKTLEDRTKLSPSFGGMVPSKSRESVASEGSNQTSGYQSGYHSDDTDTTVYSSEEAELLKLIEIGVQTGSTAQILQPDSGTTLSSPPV
UniProt P06756: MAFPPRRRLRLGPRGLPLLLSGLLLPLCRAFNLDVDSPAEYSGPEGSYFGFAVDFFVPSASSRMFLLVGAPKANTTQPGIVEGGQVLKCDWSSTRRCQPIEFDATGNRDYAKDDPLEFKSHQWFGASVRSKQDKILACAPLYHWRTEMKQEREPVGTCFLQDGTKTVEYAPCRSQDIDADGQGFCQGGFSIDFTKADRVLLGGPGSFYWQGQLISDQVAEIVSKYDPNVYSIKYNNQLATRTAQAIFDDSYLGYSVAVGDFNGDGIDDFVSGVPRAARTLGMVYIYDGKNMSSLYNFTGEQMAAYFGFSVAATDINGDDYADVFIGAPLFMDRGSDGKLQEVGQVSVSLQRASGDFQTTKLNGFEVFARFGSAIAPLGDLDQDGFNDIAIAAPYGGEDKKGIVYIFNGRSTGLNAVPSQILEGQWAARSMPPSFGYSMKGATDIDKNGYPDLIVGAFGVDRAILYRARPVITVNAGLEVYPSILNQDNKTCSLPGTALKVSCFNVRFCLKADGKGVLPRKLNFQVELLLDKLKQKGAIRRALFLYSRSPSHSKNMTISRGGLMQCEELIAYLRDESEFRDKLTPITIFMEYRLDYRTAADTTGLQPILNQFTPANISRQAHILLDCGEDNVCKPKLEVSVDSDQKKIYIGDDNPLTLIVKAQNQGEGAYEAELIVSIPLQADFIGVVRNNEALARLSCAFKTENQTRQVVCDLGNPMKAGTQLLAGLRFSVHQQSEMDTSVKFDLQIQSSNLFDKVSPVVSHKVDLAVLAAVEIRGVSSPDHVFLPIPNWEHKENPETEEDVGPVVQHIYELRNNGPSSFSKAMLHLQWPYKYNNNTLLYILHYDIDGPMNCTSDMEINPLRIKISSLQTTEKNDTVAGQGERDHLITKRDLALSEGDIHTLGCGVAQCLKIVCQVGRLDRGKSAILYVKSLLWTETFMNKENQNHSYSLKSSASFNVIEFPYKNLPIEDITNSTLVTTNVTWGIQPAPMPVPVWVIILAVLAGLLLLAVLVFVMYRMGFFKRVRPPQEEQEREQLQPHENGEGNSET
UniProt P05106: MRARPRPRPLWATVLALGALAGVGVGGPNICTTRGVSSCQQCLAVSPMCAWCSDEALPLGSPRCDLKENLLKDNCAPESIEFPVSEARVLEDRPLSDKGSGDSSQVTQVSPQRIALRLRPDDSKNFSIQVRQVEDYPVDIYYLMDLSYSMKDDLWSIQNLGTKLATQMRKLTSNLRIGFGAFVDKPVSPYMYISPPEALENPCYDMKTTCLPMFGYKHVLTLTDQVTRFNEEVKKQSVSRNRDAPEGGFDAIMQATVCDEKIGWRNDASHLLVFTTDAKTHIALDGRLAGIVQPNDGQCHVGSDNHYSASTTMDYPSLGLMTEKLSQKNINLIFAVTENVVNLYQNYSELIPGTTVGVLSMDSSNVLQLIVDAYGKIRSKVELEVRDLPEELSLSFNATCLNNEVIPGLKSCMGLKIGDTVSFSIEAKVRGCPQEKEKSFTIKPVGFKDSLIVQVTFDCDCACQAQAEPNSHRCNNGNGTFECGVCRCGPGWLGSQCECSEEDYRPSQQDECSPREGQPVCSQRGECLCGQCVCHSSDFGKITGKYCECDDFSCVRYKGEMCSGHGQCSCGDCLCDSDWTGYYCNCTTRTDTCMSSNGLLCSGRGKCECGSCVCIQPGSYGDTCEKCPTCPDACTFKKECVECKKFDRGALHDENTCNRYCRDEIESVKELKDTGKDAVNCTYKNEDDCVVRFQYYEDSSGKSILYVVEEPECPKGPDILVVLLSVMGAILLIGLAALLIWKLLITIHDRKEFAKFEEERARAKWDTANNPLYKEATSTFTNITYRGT

Assays:
[1] = target: vascular endothelial growth factor receptor 2 (VEGFR2) (human (endogenous in HUVEC)) (UniProt P35968); test: proximity ligation; in situ PLA on PFA-fixed HUVECs treated with CCN1; anti-VEGFR2, anti-CCN1 and anti-integrin β3 antibodies; red dots per cell counted; only the binder purified
[2] = target: T1, integrin αvβ3 (human (endogenous in HUVEC)) (UniProt P06756+P05106); test: as above
[3] = target: vascular endothelial growth factor receptor 2 (VEGFR2) (human (endogenous in HUVEC)) (UniProt P35968); test: co-IP; HUVECs treated with recombinant CCN1 (10 ng/mL) for 24 hr, with or without cyclo(RGDfK) (1 ug/mL); IP and immunoblotting; the precipitating antibody is not told; only the binder purified
[4] = target: T1, integrin αvβ3 (human (endogenous in HUVEC)); test: as above

binding [1]: binds | binding [2]: binds | binding [3]: binds | binding [4]: binds
B1: CCN1 (cysteine-rich angiogenic inducer 61), recombinant protein (ligand, UniProt O00622 25-381)
chain: TCPAACHCPLEAPKCAPGVGLVRDGCGCCKVCAKQLNEDCSKTQPCDHTKGLECNFGASSTALKGICRAQSEGRPCEYNSRIYQNGESFQPNCKHQCTCIDGAVGCIPLCPQELSLPNLGCPNPRLVKVTGQCCEEWVCDEDSIKDPMEDQDGLLGKELGFDASEVELTRNNELIAVGKGSSLKRLPVFGMEPRILYNPLQGQKCIVQTTSWSQCSKTCGTGISTRVTNDNPECRLVKETRICEVRPCGQPVYSSLKKGKKCSKTKKSPEPVRFTYAGCLSVKKYRPKYCGSCVDGRCCTPQLTRTVKMRFRCEDGETFSKNVMMIQSCKCNYNCPHANEAAFPFYRLFNDIHKFRD
